Read-outs that look alike come from different tables or passages of the source. Results are given in words; binding and its absence hold for the method and conditions named. In cells and extracts the contact can be indirect. Some results given as binding are weak or reduced against the parent protein; the word gives no strength. For some of these results: Where a sequence is shown, tags or fusion partners need not be part of it.
Columns and labels:
Assay in all cases: co-IP
MIA40-Strep (human) = target: T1, MIA40-Strep (human) (UniProt Q8N4Q1)
T1 sequence: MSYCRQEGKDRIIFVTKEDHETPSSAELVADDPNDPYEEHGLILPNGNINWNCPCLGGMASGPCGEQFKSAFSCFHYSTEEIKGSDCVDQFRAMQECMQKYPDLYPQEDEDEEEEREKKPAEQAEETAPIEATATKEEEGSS

The chains behind the UniProt entries cited, without tags or fusion partners. Residues count along the entry.
UniProt Q5TGZ0: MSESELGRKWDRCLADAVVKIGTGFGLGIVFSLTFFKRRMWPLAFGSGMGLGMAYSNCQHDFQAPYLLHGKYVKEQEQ
UniProt O95831, residues 102-613: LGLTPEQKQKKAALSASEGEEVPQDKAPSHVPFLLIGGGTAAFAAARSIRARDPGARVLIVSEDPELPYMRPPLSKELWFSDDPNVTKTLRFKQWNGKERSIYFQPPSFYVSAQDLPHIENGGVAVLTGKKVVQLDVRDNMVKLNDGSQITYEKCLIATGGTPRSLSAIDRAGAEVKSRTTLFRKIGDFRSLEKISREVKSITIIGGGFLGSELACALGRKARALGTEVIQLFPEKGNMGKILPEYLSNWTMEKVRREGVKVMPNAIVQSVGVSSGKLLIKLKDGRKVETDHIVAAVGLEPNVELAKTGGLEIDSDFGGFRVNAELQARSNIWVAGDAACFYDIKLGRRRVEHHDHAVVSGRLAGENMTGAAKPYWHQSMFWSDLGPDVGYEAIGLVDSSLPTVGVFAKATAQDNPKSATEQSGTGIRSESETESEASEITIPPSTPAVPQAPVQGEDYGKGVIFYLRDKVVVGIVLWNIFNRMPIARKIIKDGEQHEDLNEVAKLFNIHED

CCDC127-HA (human) [1] = target: T2, CCDC127-HA (human) (UniProt Q96BQ5)
T2 sequence: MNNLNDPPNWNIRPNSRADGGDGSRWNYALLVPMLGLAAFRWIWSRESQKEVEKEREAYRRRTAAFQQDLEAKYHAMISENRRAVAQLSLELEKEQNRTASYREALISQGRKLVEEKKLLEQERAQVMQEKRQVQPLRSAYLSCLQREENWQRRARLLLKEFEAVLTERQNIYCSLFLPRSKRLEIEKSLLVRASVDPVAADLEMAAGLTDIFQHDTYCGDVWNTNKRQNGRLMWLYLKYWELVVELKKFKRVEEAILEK

MIC10-FLAG = MIC10-FLAG (UniProt Q5TGZ0)
CCDC127-HA (human) [2] = target: T2, CCDC127-HA (human); remark: listed apart in the source

AIFM1 (from UniProt O95831 102-613)
binding (MIA40-Strep (human)): binds
binding (CCDC127-HA (human) [1]): binds

FAM136A (from UniProt Q96C01 1-138)
binding (CCDC127-HA (human) [1]): no binding

B1: CCDC127 (endogenous) (protein, UniProt Q96BQ5 1-260)
chain: MNNLNDPPNWNIRPNSRADGGDGSRWNYALLVPMLGLAAFRWIWSRESQKEVEKEREAYRRRTAAFQQDLEAKYHAMISENRRAVAQLSLELEKEQNRTASYREALISQGRKLVEEKKLLEQERAQVMQEKRQVQPLRSAYLSCLQREENWQRRARLLLKEFEAVLTERQNIYCSLFLPRSKRLEIEKSLLVRASVDPVAADLEMAAGLTDIFQHDTYCGDVWNTNKRQNGRLMWLYLKYWELVVELKKFKRVEEAILEK
binding (MIC10-FLAG): binds
binding (MIA40-Strep (human)): binds

B2: MIA40 (endogenous) (protein, UniProt Q8N4Q1 1-142)
chain: MSYCRQEGKDRIIFVTKEDHETPSSAELVADDPNDPYEEHGLILPNGNINWNCPCLGGMASGPCGEQFKSAFSCFHYSTEEIKGSDCVDQFRAMQECMQKYPDLYPQEDEDEEEEREKKPAEQAEETAPIEATATKEEEGSS
binding (CCDC127-HA (human) [2]): binds
binding (CCDC127-HA (human) [1]): binds

B3: CPOX (protein, UniProt P36551 111-454)
chain: TSLGRPEEEEDELAHRCSSFMAPPVTDLGELRRRPGDMKTKMELLILETQAQVCQALAQVDGGANFSVDRWERKEGGGGISCVLQDGCVFEKAGVSISVVHGNLSEEAAKQMRSRGKVLKTKDGKLPFCAMGVSSVIHPKNPHAPTIHFNYRYFEVEEADGNKQWWFGGGCDLTPTYLNQEDAVHFHRTLKEACDQHGPDLYPKFKKWCDDYFFIAHRGERRGIGGIFFDDLDSPSKEEVFRFVQSCARAVVPSYIPLVKKHCDDSFTPQEKLWQQLRRGRYVEFNLLYDRGTKFGLFTPGSRIESILMSLPLTARWEYMHSPSENSKEAEILEVLRHPRDWVR
binding (CCDC127-HA (human) [2]): no binding
binding (MIA40-Strep (human)): no binding
binding (CCDC127-HA (human) [1]): no binding

Reference: doi:10.64898/2025.12.12.693940
